Data source: PubChem BioAssay AID1053208 (Peter MacCallum Cancer Centre, 2014)
The whole screen tested about 17,000 reagents; shown is a random part of them. In the full data, 788 (4.7%) are marked active. 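Calls rest on z-score classes alone; an extra cut-off of viability at most 70% of control was not applied to them.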

- Aim: 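Genes whose silencing cuts survival of bone tumour cells only with doxorubicin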 (primary screen)
- Cells: mouse osteosarcoma cells, early-passage culture from an engineered mouse model of fibroblastic bone tumour
- Reagents: siRNA pool against mouse genes, 40 nM
- Duration: about 120 h (48 h before drug, then 72 h with drug)
- Treatment: doxorubicin 100 nM for 72 h, roughly 30-40% inhibitory dose
- Detection: 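Viability read as ATP luminescence after 72 h of 100 nM doxorubicin or none, duplicate wells averaged, scaled to non-targeting siRNA, then expressed as robust z-scores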
- Scale: viability z-score with doxorubicin and doxorubicin viability vs non-targeting: higher = more viable cells under doxorubicin; viability z-score without drug: higher = more viable cells with knock-down alone; z-score of drug to no-drug ratio: higher = less drug sensitisation by knock-down
- Hit rule: 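Called active if knock-down leaves viability unchanged without drug (z within -2 to 2) but lowers it with doxorubicin (z at or under -2)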

gene knocked down	combined z-score class	viability z-score with doxorubicin	viability z-score without drug	z-score of drug to no-drug ratio	doxorubicin viability vs non-targeting	outcome
Or2w1	no change with or without drug	1.35	1.52	0.45	1.06	inactive
Cep97	no change with or without drug	0.45	0.51	0.22	0.98	inactive
Itpkc	no change with or without drug	-1.12	-0.84	-0.56	0.84	inactive
Ldhd	no change with or without drug	-0.22	0.17	-0.22	0.92	inactive
Psmc3ip	no change with or without drug	-0.56	-0.34	-0.22	0.89	inactive
Akr1e1	no change with or without drug	-0.45	-0.51	0	0.9	inactive
Or52d1	low cell count with doxorubicin only	-2.7	-0.17	-2.7	0.7	active
Irx3	no change with or without drug	-1.8	0.17	-1.91	0.78	inactive
1700065D16Rik	high cell count without drug only	1.01	2.7	-0.56	1.03	inactive
Slc48a1	no change with or without drug	-0.56	-1.52	0.56	0.89	inactive
Clk1	no change with or without drug	-0.22	-0.67	0.34	0.92	inactive
Cyp11b2	no change with or without drug	-0.56	-0.67	0	0.89	inactive
Or4g17	no change with or without drug	-1.35	0.51	-1.57	0.82	inactive
Il22ra2	no change with or without drug	0.11	0.34	0	0.95	inactive
Scand1	high cell count without drug only	0	2.02	-1.12	0.94	inactive
Shank3	no change with or without drug	-1.12	-0.51	-0.79	0.84	inactive
Or8d6	no change with or without drug	-1.8	-0.17	-1.69	0.78	inactive
Mdh2	no change with or without drug	1.69	0.84	1.24	1.09	inactive
Btbd6	no change with or without drug	1.91	-0.51	2.59	1.11	inactive
Rbm38	no change with or without drug	-0.56	0.17	-0.56	0.89	inactive
4930590J08Rik	no change with or without drug	0.22	-0.84	1.01	0.96	inactive
Fibin	no change with or without drug	-0.67	-0.51	-0.22	0.88	inactive
Il12rb2	high cell count with doxorubicin only	2.02	0	2.25	1.12	inactive
Wdhd1	no change with or without drug	-1.12	-0.17	-1.01	0.84	inactive
Lamp5	no change with or without drug	-1.35	1.69	-2.25	0.82	inactive
Mpzl1	no change with or without drug	-0.79	0	-0.67	0.87	inactive
Prl8a8	no change with or without drug	0.79	1.18	0.11	1.01	inactive
Arid4b	no change with or without drug	-1.57	-1.52	-0.56	0.8	inactive
H2-M10.6	no change with or without drug	0.79	0.17	0.79	1.01	inactive
Aurkc	high cell count with doxorubicin only	2.36	0.51	2.14	1.15	inactive
Foxb2	no change with or without drug	0.79	0.51	0.56	1.01	inactive
Or10al6	low cell count with and without drug	-3.6	-3.2	-1.8	0.62	inactive
Parp4	no change with or without drug	1.12	1.18	0.45	1.04	inactive
Msl1	no change with or without drug	-0.45	0.17	-0.45	0.9	inactive

Part of the list above, reformatted:
gene knocked down,combined z-score class,viability z-score with doxorubicin,viability z-score without drug,z-score of drug to no-drug ratio,doxorubicin viability vs non-targeting,outcome
Shank3,no change with or without drug,-1.12,-0.51,-0.79,0.84,inactive
Or8d6,no change with or without drug,-1.8,-0.17,-1.69,0.78,inactive
Mdh2,no change with or without drug,1.69,0.84,1.24,1.09,inactive
Btbd6,no change with or without drug,1.91,-0.51,2.59,1.11,inactive
Rbm38,no change with or without drug,-0.56,0.17,-0.56,0.89,inactive
